The source of these data is patent CN113045663A.

Experiment [1] has as its target T1, 重组HE4抗原 (GenBank: AAO52683.1) (human) (UniProt Q14508).
T1 sequence (looked up): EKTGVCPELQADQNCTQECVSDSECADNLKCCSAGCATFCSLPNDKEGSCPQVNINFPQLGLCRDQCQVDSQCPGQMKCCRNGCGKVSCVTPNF
Put plainly: ELISA additivity on coated HE4 antigen.

Experiment [2] concerns the target T1, 重组HE4抗原 (GenBank: AAO52683.1) (human). In words: SPR, Biacore sequential injection on antigen chip. For orientation: SPR reads the build-up and loss of mass on a sensor chip optically.

Results are given in words; binding and its absence hold for the method and conditions named. Some results given as binding are weak or reduced against the parent protein; the word gives no strength.

B1: 纳米抗体3C8 (VHH)
VHH: QLQESGGGLVQAGGSVRLSCAASGRTFRRYHMGWFRQTPGKEREFVAAISWSGGTTYYAESVKGRFTISRDNAKNTIYLQMNSLKPEDTAVYYCAPTYGNYWHPSGYWGQGTQVTVSS
Consider B1, for which the binding entry in experiment [1] and in experiment [2] was “binds” in each case.

B2: 抗HE4纳米抗体1A8 (VHH)
VHH: QLQESGGGLVQAGDSLRLSCAASGPRFSSYGMGWFRQAPGKEREFVAAISMSGTMTDYTDSVKGRFTISRDNAKNTVYLQMNSLKPDDTAVYCCAAGGRRGWGRALFAYDYWGQGTQVTVSS
B2: the binding entry in experiment [1] and in experiment [2] was “binds” each time.
